This is an account of results in paper PMC10739146.

Experiment [1] has as its target T1, Rim21-N15Q-HA (S. cerevisiae) (UniProt P48565).
T1 sequence: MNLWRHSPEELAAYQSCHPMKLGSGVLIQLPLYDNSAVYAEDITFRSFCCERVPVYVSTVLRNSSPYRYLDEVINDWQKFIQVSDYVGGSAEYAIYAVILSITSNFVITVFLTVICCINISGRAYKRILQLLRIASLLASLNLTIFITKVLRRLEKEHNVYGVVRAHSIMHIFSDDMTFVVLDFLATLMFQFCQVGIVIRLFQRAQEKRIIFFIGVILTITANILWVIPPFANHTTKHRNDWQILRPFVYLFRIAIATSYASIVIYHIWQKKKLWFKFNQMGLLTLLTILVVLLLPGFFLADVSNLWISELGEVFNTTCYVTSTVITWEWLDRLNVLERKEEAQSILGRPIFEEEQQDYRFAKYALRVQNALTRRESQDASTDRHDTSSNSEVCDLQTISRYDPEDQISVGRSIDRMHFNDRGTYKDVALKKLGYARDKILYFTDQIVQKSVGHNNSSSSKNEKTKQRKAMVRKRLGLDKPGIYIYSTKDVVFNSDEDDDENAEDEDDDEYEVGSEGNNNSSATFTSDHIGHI
The experiment in a line: co-IP; YOK3632 (rim21Δ DFG16-FLAG) cells with Rim21-HA vectors; lysis buffer 50 mM Tris-HCl pH 7.5, 150 mM NaCl, 1 mM DTT; solubilised with 1% Triton X-100 at 4°C; immunoprecipitated with anti-HA 3F10 and Protein G magnetic beads, 4°C, 90 min; blotted with anti-HA and anti-FLAG.

The target of experiment [2] is T2, Rim21-HA (WT) (S. cerevisiae) (UniProt P48565).
T2 sequence (chain, N-glycosylation at N15): T1 sequence with Q15N
The description is as above.

Changes are numbered by the printed parent chain. These are yes or no findings as the source states them, for the method shown. In cells and extracts the contact can be indirect. Some entries that bind do so weakly or less than the wild type. Sequences can lack the tags named with a protein.

B1: Dfg16-FLAG (protein, UniProt Q99234 1-619)
chain: MIIRLHFYYLLTLVYHLGLVGAYEKAARKRIQPPDLIPGPPGHKLGDERPPHYDHRPPYKKHIDNIPAYNLTDLIDDKLLNKYENSCTVNVLTGGFISLASNSWHLRAYNYTLNYPSFLIRCDNGSANPNFSHVLQDFVYDINNKFNVQDDSSKYIGKDPFPLGMIMITFASGCICVATWMLFLVVLLLPSDNHNRRNKVVHVYVLFSAIIRTVFLNETIAVIFDSQYHDDYQDASQFESFIVETAPYKICELVANILSDINWIYIVHYLQSNYGKPTWNWIPFKMKKGTHIIITVGCFLSLADNILFANLLWRKNLVVLKVFYKLIELLIYTIFISIICYFTWHNFAYILLPKTAEINTDGKCKTKLRILWENYHETIPLLAYNILIFILFYFTTIFFAAFTKHVRGWTFNFVHLLKVLITVNVWGLIGVLEKRELHISKKTVLGRKINNRDKFFANPTVNYYGEDLGKHLSAITLNRDLNTTKSNTTSHDSSSLVGSPSPTWKSPIERIRDRRRRHKIMKSENKFGQNPSFGSKSNGKPNTKTTLSKYRQLLRKPRRKTNSYEPKNGIGQNKEGSTVRPGADKHIRDSNYLATDISDNESMETELRTNHIYNYENSD
As for B1, the binding result in experiment [1] and in experiment [2] was “binds” throughout.
